{"source": "PubChem BioAssay AID1347076", "about": "(National Center for Advancing Translational Sciences (NCATS), 2019)", "note": "About 13,000 (3.2%) of roughly 400,000 compounds were called active. Inconclusive means that the source gave no clear call. Such entries were picked first, then a sample of the others. Calls come from the whole dose curve; as a rule, active = well fitted cell-killing curve with a large enough effect; inconclusive = small, poorly fitted or top-dose-only effect, or effect the other way; inactive = flat fitted curve, though single readings scatter. Potencies of inconclusive entries are doubtful fits and often do not repeat. Potency is the fitted concentration of half-maximal effect."}
{"assay": "qHTS assay for MDR1-selective chemotherapeutics: Primary screen using the drug-selected MDR subline cells KB-V1; note: nearly all actives have a fitted effect of over 60% in size", "conditions": "KB-V1 MDR cells viability, CellTiter-Glo, 72 h; series mostly up to 46.1 µM", "procedure,_shortened": "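Potencies derive from concentration-effect curves fitted to normalized luminescence (CellTiter-Glo) of KB-V1 cells treated for 72 h at 37 degrees C in phenol-red-free DMEM containing 10% FBS.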"}
{"smiles": "O=Cc1ccccc1Oc1ccccc1", "Potency": "inconclusive: 25.9 µM [rising, partial curve, poor fit]"}
{"smiles": "COc1ccc(CCNS(=O)(=O)c2cccc(S(=O)(=O)N3CCCC3)c2)cc1OC", "Potency": "active: 18.4 µM"}
{"smiles": "Cc1csc2nc(O)c(C(=O)NC3CCCCC3C)c(=O)n12", "note": "(stereo not drawn)", "Potency": "inconclusive: 29.1 µM [cytotoxic, single point]"}
{"smiles": "COc1ccc(C(C)(NC(C)=O)c2nc(-c3ccc(F)c(Cl)c3)cs2)cc1", "note": "(stereo not drawn)", "Potency": "inactive"}
{"smiles": "O=S(=O)(NC1CC1)c1ccc(S(=O)(=O)N2CCC3(CC2)OCCO3)cc1", "Potency": "inconclusive: 23.1 µM [cytotoxic, single point]"}
{"smiles": "CCCC(=O)Nc1cccc(NC(=O)Cc2ccc(Cl)cc2)c1", "Potency": "inconclusive: 7.31 µM [cytotoxic, partial curve]"}
{"smiles": "O=C(c1nn2c(C(F)(F)F)cc(-c3ccco3)nc2c1Br)N1CCCc2ccccc21", "Potency": "active: 23.1 µM"}
{"smiles": "CC[n+]1c(/C=C/c2ccc(OC)c(OC)c2)ccc2ccccc21", "Potency": "inactive"}
{"smiles": "S=C(NCCN1CCOCC1)N1CCN(c2cccc(Cl)c2)CC1", "Potency": "active: 4.61 µM"}
{"smiles": "COc1ccc2oc(=O)c(-c3csc(Nc4ccc(O)cc4)n3)cc2c1", "Potency": "inconclusive: 29.1 µM [cytotoxic, single point]"}
{"smiles": "Cc1cc(C)c(C(=O)COC(=O)c2cc([N+](=O)[O-])ccc2NCCO)cc1C", "Potency": "inconclusive: 18.4 µM [cytotoxic, partial curve, poor fit]"}
{"smiles": "Nc1nc(=S)c2ncn([C@@H]3O[C@H](CO)[C@@H](O)[C@H]3O)c2[nH]1", "Potency": "active: 0.92 µM"}
{"smiles": "CCOc1ccc(CCNC(=O)c2cc3c(s2)-c2ccccc2OC3)cc1OCC", "Potency": "inconclusive: 5.8 µM [cytotoxic, partial curve]"}
{"smiles": "Cc1onc(-c2c(F)cccc2Cl)c1C(=O)N1CCN(c2ncc(Br)cn2)CC1", "Potency": "inactive"}
{"smiles": "Cc1nc2ccccc2c2c1C(=O)N(c1ccc(C(=O)O)cc1)C2=O", "Potency": "inconclusive: 29.1 µM [rising, single point]"}
{"smiles": "Oc1ccccc1-c1nnc2n1CCCCC2", "Potency": "inactive"}
{"smiles": "CCCc1nc(N)c(C#N)c(-c2ccco2)c1CC", "Potency": "inconclusive: 29.1 µM [cytotoxic, single point]"}
{"smiles": "CC(C)[C@H](NC(=O)c1ccco1)C(=O)NCc1ccccc1", "Potency": "inconclusive: 32.6 µM [cytotoxic, partial curve, poor fit]"}
{"smiles": "Cc1ccc(-c2cc(NC(=O)COc3ccc(Cl)cc3C)on2)cc1", "Potency": "inconclusive: 29.1 µM [rising, single point]"}
{"smiles": "CCC(C)(C)n1nnnc1C(C(C)C)N(CCN1CCOCC1)Cc1cc2cccc(C)c2[nH]c1=O", "note": "(stereo not drawn)", "Potency": "active: 14.6 µM"}
{"smiles": "Cc1ccc(S(=O)(=O)c2c(N)n(-c3ccccc3)c3nc4ccccc4nc23)cc1", "Potency": "inconclusive: 8.2 µM [cytotoxic, partial curve]"}
{"smiles": "COc1ccc(NS(=O)(=O)c2cccc(C(=O)N3CCCCCCC3)c2)cc1", "Potency": "inconclusive: 18.4 µM [cytotoxic, single point]"}
{"smiles": "O=C(Nc1ccnn1C1CCN(C(=O)c2cccnc2)CC1)c1cccc(F)c1", "Potency": "inactive"}
{"smiles": "CCc1ccc2nc3nc(C)cc(C)c3c(N)c2c1", "Potency": "active: 20.6 µM"}
{"smiles": "Cn1nccc1C(=O)N1CCN(c2ccccc2F)CC1", "Potency": "inactive"}
{"smiles": "CN(Cc1ccco1)C(=O)Cn1cc(S(=O)(=O)N2CCCC2)c(S(=O)(=O)N2CCCC2)c1", "Potency": "inconclusive: 16.4 µM [rising, single point]"}
{"smiles": "O=C(NCc1cccnc1)c1ccc2c(c1)N(Cc1ccccc1)CCS2", "Potency": "inconclusive: 4.11 µM [cytotoxic, full curve, poor fit]"}
{"smiles": "COc1ccc(/C=C(\\C#N)C(=O)OCC(=O)NC2CC2)cc1", "Potency": "inactive"}
{"smiles": "CC1(C(=O)NCc2cccc(C(F)(F)F)c2)CCN1CCc1ccccc1", "note": "(stereo not drawn)", "Potency": "inconclusive: 16.4 µM [cytotoxic, single point]"}
{"smiles": "O=C(CC1CCOCC1)Nc1ccc(Cl)c(Cl)c1", "Potency": "inactive"}
{"smiles": "C[C@@H]1COC(=O)[C@H](Cc2ccc(F)cc2)CC/C=C/C[C@@H](CC(=O)N[C@@H](CO)Cc2ccccc2)C(=O)N1", "Potency": "inactive"}
{"smiles": "O=C(O)Cn1c(=O)c(-c2ccccc2)nc2ccccc21", "Potency": "inconclusive: 29.1 µM [rising, single point]"}
{"smiles": "Cn1c(N)c(C(C[N+](=O)[O-])c2ccccc2Cl)c(=O)n(C)c1=O", "note": "(stereo not drawn)", "Potency": "inactive"}
{"smiles": "CCN(CC(=O)Nc1ccc(Cl)c(S(=O)(=O)N(C)C)c1)CC(=O)NC(C)C", "Potency": "inconclusive: 29.1 µM [rising, single point]"}
{"smiles": "CC(C)(C)/C=N/NC(=O)CNC(=O)c1ccc2c(c1)OCCO2", "Potency": "inconclusive: 16.4 µM [rising, single point]"}
{"smiles": "COc1cccc(C2=NOC(C(=O)NC(C)(C)C)C2)c1", "note": "(stereo not drawn)", "Potency": "inactive"}
{"smiles": "COCCCNCCCCOc1ccc(Br)cc1C", "Potency": "inconclusive: 8.2 µM [cytotoxic, partial curve, poor fit]"}
{"smiles": "N#CCCN(C(=O)COc1ccc(Cl)cc1Cl)c1ccccc1", "Potency": "inactive"}
{"smiles": "O=C(c1ccco1)N1CCN(C(c2cccs2)c2nnnn2C2CCCC2)CC1", "note": "(stereo not drawn)", "Potency": "inconclusive: 7.31 µM [cytotoxic, partial curve]"}
{"smiles": "Cc1cc(C(=O)CSc2nnc(NCc3ccccc3)s2)c(C)n1C", "Potency": "inconclusive: 18.4 µM [cytotoxic, single point]"}
{"smiles": "CCOC(=O)C1=C(CN2CCN(c3ccccc3F)CC2)NC(=O)NC1c1ccc(Cl)cc1", "note": "(stereo not drawn)", "Potency": "inactive"}
{"smiles": "Cc1ccc(S(=O)(=O)NCCCCCC(=O)Nc2ccccc2)cc1", "Potency": "inconclusive: 9.2 µM [cytotoxic, partial curve]"}
{"smiles": "Cc1ccc(S(=O)(=O)N2CCN(C(=O)COc3ccc(Br)cc3)CC2)cc1", "Potency": "active: 16.4 µM"}
{"smiles": "CCN(Cc1ccccc1)c1ccc(/C=N/NC(=O)c2cccc(S(=O)(=O)N3CCOCC3)c2)cc1", "Potency": "inconclusive: 20.6 µM [cytotoxic, single point]"}
{"smiles": "COC(=O)c1scc(-c2ccc(C)cc2)c1S(=O)(=O)Nc1ccc(N(C)C)cc1", "Potency": "inconclusive: 29.1 µM [cytotoxic, single point]"}
{"smiles": "O=C(NCc1ccco1)C1Cc2c(-c3cccc(F)c3)ccnc2O1", "note": "(stereo not drawn)", "Potency": "active: 4.61 µM"}
{"smiles": "CCC1=[N+](CC(=O)c2ccc(Br)cc2)CCn2c(C)ccc21", "Potency": "inconclusive: 8.2 µM [cytotoxic, partial curve, poor fit]"}
{"smiles": "COc1cnn(-c2ccc(Br)cc2)c(=O)c1SCc1ccccc1", "Potency": "inconclusive: 29.1 µM [cytotoxic, single point]"}
{"smiles": "COc1ccc2nc(C)cc(N3CCN(c4ccccc4)CC3)c2c1", "Potency": "inconclusive: 5.8 µM [cytotoxic, full curve]"}
{"smiles": "CCOc1ccc(N/C(SCc2cccc([N+](=O)[O-])c2)=C(/C#N)C(N)=O)cc1", "Potency": "inactive"}
{"smiles": "Cc1cccc(CNC(=O)c2ccc(NC(=O)N3CC(C)Sc4ccccc43)cc2)c1", "note": "(stereo not drawn)", "Potency": "inactive"}
{"smiles": "CCC1NC(=O)c2cccnc2-n2c1nc1ccc(OC)cc1c2=O", "note": "(stereo not drawn)", "Potency": "inconclusive: 23.1 µM [rising, single point]"}
{"smiles": "CN(CCNC(=O)C1CC(=O)N(c2ccc(F)c(Cl)c2)C1)Cc1ccccc1", "note": "(stereo not drawn)", "Potency": "inconclusive: 8.2 µM [cytotoxic, partial curve]"}
{"smiles": "C=C1CC[C@@H]2[C@](C)(CCC[C@@]2(C)/C=C/[C@@H](O)C(C)(C)O)[C@H]1CC(=O)NCCS(=O)(=O)O", "Potency": "inconclusive: 18.4 µM [rising, partial curve, poor fit]"}
{"smiles": "C[C@H](CO)N1C[C@H](C)[C@H](CN(C)S(=O)(=O)c2ccc(Cl)cc2)OCc2ccccc2-c2c(n(C)c3ccccc23)C1=O", "Potency": "inconclusive: 25.9 µM [cytotoxic, partial curve, poor fit]"}
{"smiles": "CCCCCc1cc(=O)oc2c(C(CCN3CCCC(C)C3)c3ccc(N(C)C)cc3)c(OC)cc(OC)c12", "note": "(stereo not drawn)", "Potency": "inconclusive: 29.1 µM [cytotoxic, single point]"}
{"smiles": "COC(=O)c1ccn(-c2nc(-c3ccco3)cc(C(F)(F)F)n2)n1", "Potency": "inactive"}
{"smiles": "COc1ccc(C(=O)Nc2ccc(C)cc2C(=O)c2ccccc2)cc1", "Potency": "inconclusive: 13 µM [cytotoxic, partial curve]"}
{"smiles": "CCCCC(=O)N(C)c1c(CC)nc2c(OCC(=O)c3ccc(Cl)cc3Cl)cccn12", "Potency": "inconclusive: 2.59 µM [cytotoxic, full curve]"}
{"smiles": "COc1ccc(/C=C2/SC(=O)N(CCNC(=O)C3COc4ccccc4O3)C2=O)cc1", "note": "(stereo not drawn)", "Potency": "inconclusive: 29.1 µM [cytotoxic, partial curve, poor fit]"}
{"smiles": "Cc1ccc(NC(=O)Cn2c(=O)n(-c3ccccc3)c(=O)c3ccc(C(=O)NCc4ccc5c(c4)OCO5)cc32)c(C)c1", "Potency": "inconclusive: 16.4 µM [rising, single point]"}
{"smiles": "COc1ccc(NC(=O)[C@@H]2CCCN2S(=O)(=O)c2cccc3cccnc23)cc1", "Potency": "inconclusive: 29.1 µM [rising, single point]"}
{"smiles": "CCCNC(=O)c1cc(S(=O)(=O)N2CCc3ccccc32)ccc1F", "Potency": "inconclusive: 16.4 µM [cytotoxic, single point]"}
{"smiles": "CC(C)CN(CCNC(=O)CN1C(=O)CSc2ccc(S(=O)(=O)N3CCOCC3)cc21)CC(C)C", "Potency": "inconclusive: 29.1 µM [cytotoxic, single point]"}
{"smiles": "O=c1[nH]nc(Cc2ncc(C(F)(F)F)cc2Cl)c2ccccc12", "Potency": "inconclusive: 20.6 µM [cytotoxic, single point]"}
{"smiles": "c1ccc(CN(Cc2ccccc2)C(c2ccnc3ccccc23)c2nnnn2-c2ccc3c(c2)OCCO3)cc1", "note": "(stereo not drawn)", "Potency": "active: 18.4 µM"}
{"smiles": "COc1ccccc1C=NN=C(NN=Cc1ccccc1OC)NN=Cc1ccccc1OC", "Potency": "active: 20.6 µM"}
{"smiles": "CCOC(=O)c1c(C)[nH]c(C2=NNC(=Nc3ccccc3OC)SC2)c1C", "Potency": "inconclusive: 18.4 µM [cytotoxic, single point]"}
